# Assay results reported in PubChem BioAssay AID720533 (National Center for Advancing Translational Sciences (NCATS), 2013).
# Several values for one entry are separate records, joined by “and”; a condition that tells them apart may be missing. Equal values may be shown once. About 750 (4.2%) of roughly 18,000 compounds were called active. The shares of active, inactive and inconclusive entries below differ from those in the screen. Calls come from the whole dose curve; tested in HEK293 cells. A potency beside an inconclusive call is a rough fit, not a confirmed value.
# Assay: qHTS for Inhibitors of binding or entry into cells for Lassa Virus
# Settings: Lassa virus pseudotyped entry inhibition, cell-based qHTS; activity change, negative = inhibition: at 49.2 µM (top of the series) unless noted
# % is set by controls: 0 for no effect and ±100 for the full control effect; potency is the fitted concentration of half-maximal effect.
SMILES,Potency,"activity change, negative = inhibition"
O=C(NCC1(N2CCOCC2)CCCCC1)c1cnn(-c2nccc(-c3cccs3)n2)c1C1CC1,"inconclusive: 35.5 µM [inhibitor, partial curve, poor fit]",–
C=CC(=O)c1ccc2ccccc2c1,"inconclusive: 14.1 µM [inhibitor, partial curve]",–
O[C@@H]1COC2[C@@H](O)CO[C@@H]21 (some centres not stated),"inconclusive: 35.5 µM [inhibitor, single point]",–
COC(=O)C1=C(C)NC(C)=C(C(=O)O[C@H]2CCN(Cc3ccccc3)C2)[C@H]1c1cccc([N+](=O)[O-])c1,"inconclusive: 31.6 µM [inhibitor, single point]",–
N#CC(=C(/N)Sc1ccccc1N)/C(C#N)=C(/N)Sc1ccccc1N,"inconclusive: 3.98 µM [inhibitor, full curve]",–
CC(C)(C)c1ccc(CN2CCN(C(c3ccccc3)c3ccc(Cl)cc3)CC2)cc1 (configuration not stated),"inconclusive: 31.6 µM [inhibitor, single point]",–
CC[C@H](C)[C@H](NC(=O)CNC(=O)[C@H](C)NC(=O)[C@H](C)N)C(=O)NCC(=O)N[C@H](C(=O)N[C@@H](CC(C)C)C(=O)N[C@H](C(=O)N[C@H](C(=O)O)C(C)C)[C@@H](C)O)[C@@H](C)CC,inactive,–
CCC[C@H]1CN(c2ccc(Br)cc2)C(=O)[C@H]1CC(=O)Nc1ccccc1,inactive,–
NN=C(N)N,inactive,–
COc1ccccc1C1(O)CCN(CCCn2c3ccccc3c3ccccc32)CC1,"inconclusive: 22.4 µM [inhibitor, single point]",–
CCCN(CCC)Cc1cc(=O)oc2cc(OC)c(Cl)cc12,–,inconclusive: 3.76% [inhibitor]
COCC1=C(C(=O)OC(C)OC(=O)OC(C)C)N2C(=O)[C@@H](NC(=O)/C(=N\OC)c3csc(N)n3)[C@H]2SC1 (some centres not stated),"inconclusive: 7.94 µM [inhibitor, full curve]",–
OC[C@H]1O[C@@H](n2cnc3c(=S)nc[nH]c32)[C@H](O)[C@@H]1O,active: 6.31 µM,–
COc1cc(-c2ccc(N=Nc3ccc4c(S(=O)(=O)O)cc(S(=O)(=O)O)c(N)c4c3O)c(OC)c2)ccc1N=Nc1ccc2c(S(=O)(=O)O)cc(S(=O)(=O)O)c(N)c2c1O,"inconclusive: 28.2 µM [inhibitor, partial curve]",–
Clc1ccc(C(c2ccc(Cl)cc2)C(Cl)(Cl)Cl)cc1,inactive,–
CCC1CN2CCC1CC2C(O)c1ccnc2ccc(OC)cc12 (configuration not stated),"inconclusive: 11.2 µM [inhibitor, partial curve]",–
COC(=O)[C@H]1[C@H](C)[C@@]2(O)c3ccccc3N(C)[C@@]1(C)[C@H]2O,–,inactive: -14% [at 8.59 µM]
COC(=O)/C=C/c1cccc([C@H]2[C@@H]3C=CC[C@@H](C)[C@@H]3C(=O)N2Cc2ccccc2)c1,"inconclusive: 39.8 µM [inhibitor, single point]",–
COC1C[C@@H](O[C@@H]2C(C)C(=O)OC(C)C(C)[C@H](OC(C)=O)C(C)C(=O)[C@@]3(CO3)CC(C)C(OC3OC(C)CC(N(C)C)[C@H]3OC(C)=O)C2C)OC(C)[C@@H]1OC(C)=O (some centres not stated),inactive,–

# Record cards (already shown). Order of values: Potency | activity change, negative = inhibition
# O=C(NCC1(N2CCOCC2)CCCCC1)c1cnn(-c2nccc(-c3cccs3)n2)c1C1CC1 is listed as inconclusive: 35.5 µM [inhibitor, partial curve, poor fit] | –
# COC(=O)C1=C(C)NC(C)=C(C(=O)O[C@H]2CCN(Cc3ccccc3)C2)[C@H]1c1cccc([N+](=O)[O-])c1 is listed as inconclusive: 31.6 µM [inhibitor, single point] | –

# Next results follow:

SMILES,Potency,"activity change, negative = inhibition"
C=C1c2c(Cl)ccc(O)c2C(O)=C2C(=O)[C@]3(O)C(O)=C(C(N)=O)C(=O)C(N(C)C)C3C(O)C12 (some centres not stated),"inconclusive: 10 µM [inhibitor, partial curve, poor fit]",–
Cc1cc(C)n(-c2cccc(C(=O)NCC3Cc4cc(Cl)cc(-c5cnccn5)c4O3)c2)n1 (configuration not stated),"inconclusive: 35.5 µM [inhibitor, single point]",–
CCN1CCN(C(=O)c2cnn(-c3ncc4c(n3)-c3ccccc3CCC4)c2COC)CC1,"inconclusive: 0.316 µM [inhibitor, full curve, poor fit]",–
CN(C)CCC=C1c2ccccc2CCc2ccccc21,"inconclusive: 14.1 µM [inhibitor, single point] and inconclusive: 31.6 µM [inhibitor, partial curve] and inconclusive: 15.8 µM [inhibitor, partial curve]",–
Cc1cnc(-n2ncc(C(=O)NCCc3ccncc3)c2-c2cccs2)nc1-c1ccc(F)cc1,inactive,–
C/C=C(\C)C(=O)O[C@H]1CC(C)=C2C(=O)C=C(C)C2[C@@H]2OC(=O)[C@@](C)(OC(=O)C=C(C)C)C21 (some centres not stated),"inconclusive: 14.1 µM [inhibitor, single point]",–
CCCNC(=O)[C@H]1O[C@@H]1C(=O)N[C@H](C(=O)N1CCC[C@H]1C(=O)OC)[C@@H](C)CC,active: 10 µM,–
CS(=O)(=O)Nc1cccc(-c2nc(Nc3ccccc3)c3ccccc3n2)c1,"inconclusive: 35.5 µM [inhibitor, single point]",–
C[C@@H](CN(C)C)CN1c2ccccc2Sc2ccccc21,"inconclusive: 14.1 µM [inhibitor, single point]",–
COc1cc(/C=C/C(=O)N2CCC=CC2=O)cc(OC)c1OC,"inconclusive: 20 µM [inhibitor, single point]",–
CCN(CC)CCOC(=O)C1(c2ccccc2)CCCC1,inactive,–
NC1CCc2cc(O)c(O)cc2C1 (configuration not stated),inactive,–
CC(C)(C)c1ccc(O[C@@H]2[C@H](O)CO[C@@H]2C=CC#Cc2ccccc2)cc1,–,inactive: -28.4% [at 8.59 µM]
CN(CCc1ccc(Cl)c(Cl)c1)CCN1CCCCCC1,"inconclusive: 25.1 µM [inhibitor, partial curve] and inconclusive: 11.2 µM [inhibitor, partial curve]",–
CC#CCN1c2ccccc2[C@]23CCC(=O)N(CCCOC(C)C)C2=NC(C(=O)OC)=C(C(=O)OC)[C@H]13,–,inactive: 10.6% [at 8.59 µM]
CCCCC/C=C\C/C=C\C/C=C\C/C=C\CCCC(=O)NCC(=O)O,"inconclusive: 0.0031 µM [inhibitor, full curve, poor fit]",–
Oc1ccc(Cl)cc1Cc1cc(Cl)ccc1O,"inconclusive: 35.5 µM [inhibitor, single point]",–
CCCCCCCCCCCCC/C=C/[C@@H](O)[C@H](CO)NC(C)=O,inactive,–
